The source of these data is PubChem BioAssay AID1347426 (Functional Genomics Laboratory (NCATS/FGL), 2020).

The campaign covered roughly 31,000 sequences. About 1,400 (4.5%) were called active.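 The calls were made as follows: active = median seed-adjusted z-score above 1 or below -1; inactive = the rest.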 Some of the results follow.

This assay is described as follows: Novel Modifiers of Survival Motor Neuron (SMN) Protein: Gene Identification via Genome-wide siRNA Screen.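 Also: luminescence tracks full-length SMN protein made from the SMN2 reporter.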 The conditions noted are these: HEK293T SMN2-luciferase reporter, siRNA knockdown, 72 h; actives lie on both sides. Put shortly: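 Luciferase signal, proportional to full-length SMN made from an SMN2 cDNA reporter in stable HEK293T cells, was read 72 h after siRNA reverse transfection. Values were expressed as MAD scores after non-targeting-control normalization and log10 conversion; seed analysis flagged off-targets.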
(Reporter assays use an easily measured gene product as a stand-in for the process of interest.)
Take AAAGCGCAAUUGGUGGUAATT against DYNLT1: the median seed-adjusted z-score is inactive: 0.764.

Turning to CCAAGAUCCUCUUUCUGUUTT against G6PC3, the median seed-adjusted z-score was inactive: -0.13.

For GGACCAACCUGUAUAGGAATT against PPP1R16B, the median seed-adjusted z-score is inactive: -0.892. The value for CGAGCAGGGCUUUACGCAATT against SEMA3B was inactive: 0.000251. The value for GCAAUGCACAGAUACUACATT against MTMR11 was inactive: -0.0244. Next, CCCUAUGCCUACUACCUGUTT against AMPD2: inactive: 0.214; CUUCCUCGGUGGAACACGATT against SCLY: inactive: 0.00396.

Turning to GAUGUACGCGCAGUCCAAATT against MGAT4B, the median seed-adjusted z-score was inactive: 0.0142.

Regarding GGAAGAACCAGAGUGUGAATT against C1RL, the median seed-adjusted z-score is inactive: -0.148. The value for GAACUUUGAUAAUGGUGAUTT against FSTL1 was inactive: 0.503; that for GGAGUUUCCUUAUCGAAGATT against FAT3 was inactive: 0.246. On to GUGAAGAUGUGGUCCUGAATT against PTK2B, for which the median seed-adjusted z-score was active: 1.71. Next, CCUCCUACGUGAUCACAGATT against IRAK2: inactive: -0.06; CCACUGUAUCAAACCCGUUTT against LTBP2: inactive: 0.0496.

Turning to CAACUUAUAAGUACAAGAATT against MMP20, the median seed-adjusted z-score was inactive: 0.0623. On to CUACUUCGAGGACAAAGAATT against PLK2, for which the median seed-adjusted z-score is inactive: -0.419. On to GGCCUUCAUUACUUGUAGATT against ZFP62, for which the median seed-adjusted z-score was inactive: -0.255. As to CCAUAUCAGUGGGCUAUUUTT against SLC22A5, the median seed-adjusted z-score is inactive: 0.349.

With GCGUGUAAAUUCUACUGCATT against RB1, the median seed-adjusted z-score is inactive: 0.49.

CUACAUUUACGGGAGCAAATT against POP4: the median seed-adjusted z-score was inactive: -0.144.

For GAGAUUAACGAGACCAGAATT against LMNB1, the median seed-adjusted z-score is inactive: 0.0619. For the sequence GGAAAGCGGCCUUCAAGGATT against EFHD2, the median seed-adjusted z-score is inactive: 0.874. The value for GGGAAGCAGUCGAUAUUAUTT against MAPKAP1 was inactive: -0.0499; that for GAAUGGACUUCCUCAGUAATT against SLC5A4 was inactive: 0.602; that for GAGCAUACAGCUUAGCAAATT against TLR7 was inactive: 0.189. As to CUAAAGGACUUUUACGAUATT against TPCN1, the median seed-adjusted z-score was inactive: 0.139. Regarding GCACUGCUCGUUUUCUAUATT against CD2, the median seed-adjusted z-score is inactive: 0.00791. Next, CAGACUCACCUUGACCUUATT against GLRA2: inactive: -0.927; GGACUUCCCUGAUGUGCUATT against LINGO1: inactive: -0.443. Turning to UCAUCUACACGCUCACCAATT against S1PR5, the median seed-adjusted z-score was inactive: 0.301. With GGUGAGAUGUGGUCUAUAUTT against HES7, the median seed-adjusted z-score was inactive: -0.286. Consider CUUCGGAACCUGUCGUAUATT against DHX57, for which the median seed-adjusted z-score is inactive: -0.138. On to AGUCCAACAUCUCGCCCAATT against DUSP7, for which the median seed-adjusted z-score is inactive: 0. Next, CCGCUUGCACGUAUAGAUATT against HPCAL1: inactive: -0.00535; CAGCGAUUCGAGAAGGUUUTT against INPP5A: inactive: -0.00941; GGAUGUAAGUUGUCCAAUATT against SUZ12: active: -1.65. As to GUGUUUAUCAUGGACAACATT against TESSP5, the median seed-adjusted z-score is inactive: 0.

Consider CCACCUUGUUCGACACCAATT against ZNF134, for which the median seed-adjusted z-score was inactive: -0.0978.

In the case of AGGUCACAGUGGGUCCGAATT against DGAT2, the median seed-adjusted z-score was inactive: 0.195. Regarding GCAACUGUUUGAGAUAGCATT against GUF1, the median seed-adjusted z-score is inactive: 0.119. For the sequence GGAAGGGACGCACCAUUUATT against SAT2, the median seed-adjusted z-score is inactive: -0.43. With CGAAGGCUAGGAAUAGGAATT against NAT13, the median seed-adjusted z-score was inactive: 0. Next, GCAGGAUUCAGGUUGAACATT against SSX1: inactive: 0.0114; AGAUCGAGCCGGACAUGAUTT against NACC1: active: 1.59; CGAUUAUCUUUACAUAGGATT against NAMPT: inactive: 0. Next, CCGUAAAUGUCCAUUUAUATT against CDKN2A: inactive: -0.0748; CAUCUAAUCAUGUCAUUGATT against PRMT5: inactive: -0.303; GGUUGUUCAGAAGCUCUUATT against MBOAT2: inactive: -0.282. Next, ACUGGAUCUUGCUAACAUUTT against P2RX2: inactive: 0.0454; GCCCGGAAGUUUUCUGAAUTT against DZIP1L: inactive: 0.203. Turning to CAAACUCCCUGAUUCCCUUTT against CDC42BPG, the median seed-adjusted z-score was inactive: 0.153. The value for GGAAAACUGUGGUUUCGCUTT against ZNF451 was inactive: 0; that for GGAAAGAUCUUCAAUCAUATT against ZNF597 was inactive: 0.366; that for GGAACGCAGUCAGAUUUGATT against CA5B was inactive: 0.317. Next, GAACAAGGUUUACGGACUATT against ZFHX3: inactive: 0.045; CGUUUCCUCUGAAGCCUAATT against FOXD2: inactive: -0.0853; CAACCAGAACCAUUGCAUUTT against OLAH: inactive: -0.44. The value for GACUAUUACCUCAGACGUATT against GPR81 was inactive: 0.0718; that for GGCCUACAGCAACAAUGGATT against PCDH24 was inactive: 0.345; that for GGAAUAUUUCACCAAUUAATT against GON4L was inactive: 0.116. In the case of GAACACGCCCGGACAUAUATT against MAPK11, the median seed-adjusted z-score is inactive: 0.0663.

As to GGUCUAGCUGGGUAUUUAUTT against FAM3B, the median seed-adjusted z-score was inactive: -0.327. Regarding GUAUCAUCGAGAAAGGAGATT against COX17, the median seed-adjusted z-score is inactive: 0.772.

For the sequence GCAGCACGAGUCUCUGGAATT against BATF2, the median seed-adjusted z-score is inactive: 0.714.

Turning to GACAGAUUAUUGGAACCAATT against MID1, the median seed-adjusted z-score is inactive: -0.294. As to CUCCCGCAGUUGAACAUCATT against OCRL, the median seed-adjusted z-score is inactive: -0.545. The value for GACCGGUUUAUGAAGUUAATT against PCDHA10 was inactive: 0.0404; that for CAAGCGGAUUUCUACCCUUTT against PPP1R8 was inactive: -0.029. The value for GGAGUGUUCUGGAGAAGCATT against SLC7A10 was inactive: -0.732; that for AGCUCAAAGAGUUCUCUAATT against PADI4 was inactive: 0.417. In the case of AUACAUCAAAGAUUAGUAATT against NTS, the median seed-adjusted z-score was inactive: 0.518. For the sequence GUACCUGUCCGAGACCUAUTT against TFEB, the median seed-adjusted z-score is inactive: 0.34.

GCUCGUCUCUUACAGAACATT against ZNF391: the median seed-adjusted z-score was inactive: 0.056. As to GUCUAGAUGAUCACAAGUATT against PSMD1, the median seed-adjusted z-score was active: -1.61. Turning to CUUCAAAGGUGACAAGUAUTT against MMP24, the median seed-adjusted z-score is active: -1.28. The value for GCAACUGGUAUUUAACAAUTT against ZDHHC19 was inactive: 0.0354; that for UCUCCGAGGUUGACAGCGATT against CALML5 was inactive: -0.175; that for CCACGUAACAUAUUGUGGATT against UHMK1 was inactive: -0.269.

In the case of GAAUACAACACGUACGGAATT against ZNF555, the median seed-adjusted z-score was inactive: 0.141. Next, GCACCCUAGAGAUCCGGAATT against MYBPH: inactive: 0.0513; CAAUGAUAAACCAAAUCAATT against SNX7: inactive: 0.146. Next, CAGGUAUUCAGGUCCAUGATT against RASL11B: inactive: 0.507.

As to GUAUCGCUGCUCAACAUCATT against CHD5, the median seed-adjusted z-score was inactive: -0.195. Next, ACAACUCUGUGCACAACAATT against SLC6A19: inactive: 0.478. Regarding ACCCAGAGAUUGCCCAGAATT against WFDC6, the median seed-adjusted z-score is inactive: 0.0443. Turning to CUACUGCUGUGGAUUCAAATT against PHF20, the median seed-adjusted z-score is inactive: 0.138. In the case of CCAUAACUGUUGUGAGAUUTT against MTMR8, the median seed-adjusted z-score is inactive: -0.416.

As to CAGUCGGAUCCAGAGCUGATT against GCHFR, the median seed-adjusted z-score is inactive: -0.559. Next, CUAUCCACCAUACAUUUCATT against NTM: inactive: 0; CGAUGCUGGAGAUUAAUCATT against RDH10: inactive: -0.28; GAACCUCUAUUGUGGACAATT against TMEM1: inactive: -0.191. The value for GCAUUCACCGGUUCGUGGATT against GMPPB was inactive: 0.154; that for CAGUUGAAAUUAAACGGAATT against BRCA2 was inactive: 0; that for CGACCUGGAUGAUCGAGAUTT against SULT2B1 was inactive: 0. With GGGACCUGGUGUUACGGAATT against OTUD7A, the median seed-adjusted z-score was inactive: -0.53. GCAAUGAAAAUACUCCGUATT against STK38: the median seed-adjusted z-score is inactive: -0.961. In the case of GGGAGAACCGUGAGAAGAUTT against ACTRT2, the median seed-adjusted z-score was inactive: -0.117. For CAAUUUCUGUGAGAUGGAUTT against SLPI, the median seed-adjusted z-score was inactive: 0.274.

Take CGGAGAACAUUGUUGUUCUTT against TMTC2: the median seed-adjusted z-score is inactive: 0.0277. As to GAGGCGACAUGUUAGUACATT against SENP1, the median seed-adjusted z-score is inactive: 0.625.

On to UCAGUGAAAUUCCAAUAAATT against GRINA, for which the median seed-adjusted z-score was inactive: 0.175. The value for CAAUCUAUGUCUUCGCCUUTT against ZDHHC9 was inactive: -0.495; that for CUGCGUUUCUUGAACCUAATT against STK11IP was inactive: 0.0745. With GGAAGGCUUUUAGCAAUGATT against ZNF570, the median seed-adjusted z-score is inactive: 0.662.

On to CGCUCAUGACUAUACGCUATT against PTPN11, for which the median seed-adjusted z-score was inactive: 0.186. Next, GUGGGAACCUUGUCACAUUTT against TAP1: inactive: -0.506. The value for GCACCUGCAUGACAACGUATT against ADAM8 was inactive: -0.407; that for GGGAUAAGCAGAGAUCUCATT against POLE4 was inactive: -0.0404.
